# From the supplement of paper PMC8728848
# This is one part of the list.
# Key:
# Assay in all cases: glycan array binding signal (z-score within array); higher = stronger binding
# Details in all cases: glycan notation: IUPAC condensed, linker removed
# [1] = molecular target: Kdn(a2-3)Gal(b1-4)Glc
# Procedure, shortened: (§1)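 Arrays were curated from the Consortium for Functional Glycomics database, 3228 in total, and kept only where the protein sequence was available. Binding is expressed as a within-array Z-score. This score was averaged across arrays of the same protein sequence at different concentrations or buffers and across linkers, and negative values can be read as non-binding.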
# [2] = molecular target: Kdn(a2-3)Gal(b1-4)GlcNAc
# Procedure, shortened: as §1
# [3] = molecular target: Kdn(a2-3)Gal(b1-4)[Fuc(a1-3)]GlcNAc
# Procedure, shortened: as §1
# [4] = molecular target: Kdn(a2-6)Gal(b1-4)GlcNAc
# Procedure, shortened: as §1
# [5] = molecular target: Man(a1-2)Man(a1-2)Man(a1-3)Man
# Procedure, shortened: as §1
# [6] = molecular target: Man(a1-2)Man(a1-2)Man(a1-6)[Man(a1-3)]Man
# Procedure, shortened: as §1
# [7] = molecular target: Man(a1-2)Man(a1-3)Man
# Procedure, shortened: as §1
# [8] = molecular target: Man(a1-2)Man(a1-3)[Man(a1-2)Man(a1-6)]Man
# Procedure, shortened: as §1
# [9] = molecular target: Man(a1-2)Man(a1-3)[Man(a1-2)Man(a1-6)]Man(a1-6)[Man(a1-2)Man(a1-2)Man(a1-3)]Man
# Procedure, shortened: as §1
# [10] = molecular target: Man(a1-2)Man(a1-3)[Man(a1-2)Man(a1-6)]Man(a1-6)[Man(a1-2)Man(a1-2)Man(a1-3)]Man(b1-4)GlcNAc(b1-4)GlcNAc
# Procedure, shortened: as §1
# [11] = molecular target: Man(a1-2)Man(a1-3)[Man(a1-6)]Man(a1-6)[Man(a1-2)Man(a1-3)]Man(b1-4)GlcNAc(b1-4)GlcNAc
# Procedure, shortened: as §1
# [12] = molecular target: Man(a1-2)Man(a1-6)[Man(a1-3)]Man(a1-6)[Man(a1-2)Man(a1-2)Man(a1-3)]Man
# Procedure, shortened: as §1
# [13] = molecular target: Man(a1-2)Man(a1-6)[Man(a1-3)]Man(a1-6)[Man(a1-2)Man(a1-2)Man(a1-3)]Man(b1-4)GlcNAc(b1-4)GlcNAc
# Procedure, shortened: as §1
# [14] = molecular target: Man(a1-3)[Man(a1-6)]Man
# Procedure, shortened: as §1
# [15] = molecular target: Man(a1-3)[Man(a1-6)]Man(a1-6)[Man(a1-2)Man(a1-3)]Man(b1-4)GlcNAc(b1-4)GlcNAc
# Procedure, shortened: as §1
# [16] = molecular target: Man(a1-3)[Man(a1-6)]Man(a1-6)[Man(a1-3)]Man
# Procedure, shortened: as §1
# [17] = molecular target: Man(a1-3)[Man(a1-6)]Man(a1-6)[Man(a1-3)]Man(b1-4)GlcNAc(b1-4)GlcNAc
# Procedure, shortened: as §1
# [18] = molecular target: Man(a1-3)[Man(a1-6)]Man(b1-4)GlcNAc(b1-4)GlcNAc
# Procedure, shortened: as §1
# [19] = molecular target: Man(a1-3)[Man(a1-6)]Man(b1-4)GlcNAc(b1-4)[Fuc(a1-6)]GlcNAc
# Procedure, shortened: as §1
# [20] = molecular target: Man(a1-6)Man
# Procedure, shortened: as §1
# [21] = molecular target: Man(b1-4)GlcNAc
# Procedure, shortened: as §1
# [22] = molecular target: MurNAc(b1-4)GlcNAc
# Procedure, shortened: as §1
# [23] = molecular target: Neu5Ac(a2-3)Gal
# Procedure, shortened: as §1
# [24] = molecular target: Neu5Ac(a2-3)Gal(b1-3)GalNAc
# Procedure, shortened: as §1
# [25] = molecular target: Neu5Ac(a2-3)Gal(b1-3)GalNAc(b1-3)Gal(a1-4)Gal(b1-4)Glc
# Procedure, shortened: as §1
# [26] = molecular target: Neu5Ac(a2-3)Gal(b1-3)GalNAc(b1-4)Gal(b1-4)Glc
# Procedure, shortened: as §1
# [27] = molecular target: Neu5Ac(a2-3)Gal(b1-3)GalNAc(b1-4)[Neu5Ac(a2-3)]Gal(b1-4)Glc
# Procedure, shortened: as §1
# [28] = molecular target: Neu5Ac(a2-3)Gal(b1-3)GalNAc(b1-4)[Neu5Ac(a2-8)Neu5Ac(a2-3)]Gal(b1-4)Glc
# Procedure, shortened: as §1
# [29] = molecular target: Neu5Ac(a2-3)Gal(b1-3)GalNAc6S
# Procedure, shortened: as §1
# [30] = molecular target: Neu5Ac(a2-3)Gal(b1-3)GlcNAc
# Procedure, shortened: as §1
# [31] = molecular target: Neu5Ac(a2-3)Gal(b1-3)GlcNAc(b1-2)Man
# Procedure, shortened: as §1
# [32] = molecular target: Neu5Ac(a2-3)Gal(b1-3)GlcNAc(b1-2)Man(a1-3)[GlcNAc(b1-4)][Neu5Ac(a2-3)Gal(b1-3)GlcNAc(b1-2)Man(a1-6)]Man(b1-4)GlcNAc(b1-4)GlcNAc
# Procedure, shortened: as §1
# [33] = molecular target: Neu5Ac(a2-3)Gal(b1-3)GlcNAc(b1-2)Man(a1-3)[Neu5Ac(a2-3)Gal(b1-3)GlcNAc(b1-2)Man(a1-6)]Man(b1-4)GlcNAc(b1-4)GlcNAc
# Procedure, shortened: as §1
# [34] = molecular target: Neu5Ac(a2-3)Gal(b1-3)GlcNAc(b1-2)[Neu5Ac(a2-3)Gal(b1-3)GlcNAc(b1-4)]Man(a1-6)[Neu5Ac(a2-3)Gal(b1-3)GlcNAc(b1-2)Man(a1-3)]Man(b1-4)GlcNAc(b1-4)GlcNAc
# Procedure, shortened: as §1
# [35] = molecular target: Neu5Ac(a2-3)Gal(b1-3)GlcNAc(b1-3)Gal(b1-3)GlcNAc
# Procedure, shortened: as §1
# [36] = molecular target: Neu5Ac(a2-3)Gal(b1-3)GlcNAc(b1-3)Gal(b1-4)GlcNAc
# Procedure, shortened: as §1
# [37] = molecular target: Neu5Ac(a2-3)Gal(b1-3)GlcNAc(b1-3)GalNAc
# Procedure, shortened: as §1
# [38] = molecular target: Neu5Ac(a2-3)Gal(b1-3)GlcNAc(b1-6)GalNAc
# Procedure, shortened: as §1
binder,measurement,setting,value
SJCP1531 (Schistosoma japonicum) (protein) MFKVRIINLVNISTVLLLINLLQTKSQVNVEQLVTVLEVNIKAQLKNKTTEVLVEWNPLYQDNSMPEYRKLLDETCKLFLPFVNEKVPPSTYGGECTNANFSEAPQDGSYSRVNAELRLIYKYSDNPQIQTDRLQDDLNDREEFITSESSFVAYNPKFTVKIEKLFIPISESQTTPPPTTAKNDASKKDDDDNGGEDSKAPIDTFAMTASGNKGKKDDDDNGGEDSKAPIDTFAMTASGSKDERSTWTIIGIITLVVLIFVVIGGGITVFVKRC,glycan array binding signal (z-score),[1],-1.3
same,glycan array binding signal (z-score),[2],-0.129
same,glycan array binding signal (z-score),[3],0.747
same,glycan array binding signal (z-score),[4],-0.606
same,glycan array binding signal (z-score),[5],-1.16
same,glycan array binding signal (z-score),[6],-0.015
same,glycan array binding signal (z-score),[7],0.424
same,glycan array binding signal (z-score),[8],-1.01
same,glycan array binding signal (z-score),[9],-0.804
same,glycan array binding signal (z-score),[10],-1.21
same,glycan array binding signal (z-score),[11],-1.4
same,glycan array binding signal (z-score),[12],-0.014
same,glycan array binding signal (z-score),[13],-0.843
same,glycan array binding signal (z-score),[14],0.921
same,glycan array binding signal (z-score),[15],-0.185
same,glycan array binding signal (z-score),[16],-0.239
same,glycan array binding signal (z-score),[17],-0.243
same,glycan array binding signal (z-score),[18],-0.596
same,glycan array binding signal (z-score),[19],0.376
same,glycan array binding signal (z-score),[20],-0.518
same,glycan array binding signal (z-score),[21],1.56
same,glycan array binding signal (z-score),[22],0.723
same,glycan array binding signal (z-score),[23],0.951
same,glycan array binding signal (z-score),[24],-0.628
same,glycan array binding signal (z-score),[25],-0.631
same,glycan array binding signal (z-score),[26],-0.322
same,glycan array binding signal (z-score),[27],-1.32
same,glycan array binding signal (z-score),[28],0.296
same,glycan array binding signal (z-score),[29],-0.781
same,glycan array binding signal (z-score),[30],0.368
same,glycan array binding signal (z-score),[31],-0.604
same,glycan array binding signal (z-score),[32],-1.23
same,glycan array binding signal (z-score),[33],0.089
same,glycan array binding signal (z-score),[34],-0.175
same,glycan array binding signal (z-score),[35],-1.78
same,glycan array binding signal (z-score),[36],-0.438
same,glycan array binding signal (z-score),[37],0.87
same,glycan array binding signal (z-score),[38],0.742

# Given with tabs: entries from further up.
binder	measurement	setting	value
SJCP1531 (Schistosoma japonicum) (protein) MFKVRIINLVNISTVLLLINLLQTKSQVNVEQLVTVLEVNIKAQLKNKTTEVLVEWNPLYQDNSMPEYRKLLDETCKLFLPFVNEKVPPSTYGGECTNANFSEAPQDGSYSRVNAELRLIYKYSDNPQIQTDRLQDDLNDREEFITSESSFVAYNPKFTVKIEKLFIPISESQTTPPPTTAKNDASKKDDDDNGGEDSKAPIDTFAMTASGNKGKKDDDDNGGEDSKAPIDTFAMTASGSKDERSTWTIIGIITLVVLIFVVIGGGITVFVKRC	glycan array binding signal (z-score)	[6]	-0.015
same	glycan array binding signal (z-score)	[7]	0.424
same	glycan array binding signal (z-score)	[8]	-1.01
same	glycan array binding signal (z-score)	[9]	-0.804
same	glycan array binding signal (z-score)	[10]	-1.21
same	glycan array binding signal (z-score)	[11]	-1.4
same	glycan array binding signal (z-score)	[12]	-0.014
same	glycan array binding signal (z-score)	[13]	-0.843
same	glycan array binding signal (z-score)	[14]	0.921
same	glycan array binding signal (z-score)	[15]	-0.185
same	glycan array binding signal (z-score)	[16]	-0.239
